In the supplement of paper PMC8426693:
The other results are listed elsewhere or left out.

Each compound was assayed on SARS-CoV-2 5_SL7 RNA (assay: NMR binding call after quantification (hit when 2 of 3 NMR criteria are met) (binary (1 = binding, 0 = not binding)); higher = binding). Settings: RNA concentration 10 µM; fragment concentration 200 µM; 293 K.

Row | Structure (SMILES) | NMR binding call
1 | CNCc1ccncc1 | 0
2 | CNS(=O)(=O)c1cccc(C)c1F | 0
3 | CC1CCN(C(=O)CCCc2ccccc2)CC1 | 0
4 | CC(N)C(=O)Nc1cc(C(F)(F)F)n[nH]1.Cl (stereo not given) | 0
5 | Oc1ncc(NC2CCCCC2)c(O)n1 | 0
6 | CN1CCN(C(=O)C2CCCO2)CC1 (stereo not given) | 0
7 | Cc1c(Cl)cccc1NC(=O)CN.Cl | 0
8 | CCOc1ccc(C(=O)Nc2cc(C)on2)cc1 | 0
9 | O=C(NCCN1CCCC1=O)Nc1ccccc1 | 0
10 | CC(Oc1ccc(Cl)cc1)C(N)=O (stereo not given) | 0
11 | CCOC(=O)c1sc(-c2cnccn2)nc1C | 0
12 | NC(=O)C1CCC(F)(F)CC1 | 0
13 | CCOC(=O)c1sc(N(C)C(C)=O)nc1C | 0
14 | O=C(COc1ccccc1)N1CCCC1 | 0
15 | Fc1ccc(Cn2cnc3ccccc32)cc1 | 0
16 | Cc1ccc(S(=O)(=O)N(C)CCC#N)cc1 | 0
17 | CC(=O)Nc1cccc(NC(N)=O)c1 | 0
18 | Cc1nn(C)c(C)c1CN1CCNCC1 | 0
19 | N#CCN1CCN(c2cccc(Cl)c2)CC1 | 0
20 | Cc1noc(C(N)C(C)C)n1 (stereo not given) | 0

Part of the list above in order of length of the SMILES, low to high.
Row | Structure (SMILES) | NMR binding call
1 | CNCc1ccncc1 | 0
20 | Cc1noc(C(N)C(C)C)n1 (stereo not given) | 0
12 | NC(=O)C1CCC(F)(F)CC1 | 0
14 | O=C(COc1ccccc1)N1CCCC1 | 0
2 | CNS(=O)(=O)c1cccc(C)c1F | 0
17 | CC(=O)Nc1cccc(NC(N)=O)c1 | 0
15 | Fc1ccc(Cn2cnc3ccccc32)cc1 | 0
9 | O=C(NCCN1CCCC1=O)Nc1ccccc1 | 0
3 | CC1CCN(C(=O)CCCc2ccccc2)CC1 | 0
13 | CCOC(=O)c1sc(N(C)C(C)=O)nc1C | 0
16 | Cc1ccc(S(=O)(=O)N(C)CCC#N)cc1 | 0

Next structures

Row | Structure (SMILES) | NMR binding call
21 | NC(=O)c1ccc(NC(=O)C2CCCO2)cc1 (stereo not given) | 0
22 | CN(C)C(=O)c1ccc(F)cc1Br | 0
23 | O=C(O)c1ccccc1OC(F)(F)F | 0
24 | Cl.Cl.O=C(c1ccncc1)N1CCNCC1 | 0
25 | Cl.Cn1cc(C(N)=O)c(C2CCCNC2)n1 (stereo not given) | 0
26 | C1CCC(NCC2CCCO2)C1 (stereo not given) | 0
27 | Cn1c(CNC2CCCCC2)nc2ccccc21 | 0
28 | O=C(c1c(F)cccc1F)N1CCCCCC1 | 0
29 | CCOc1ncccc1C(N)=O | 0
30 | NCc1ccc(-c2cccs2)cc1 | 0
31 | Cc1nnc(N2CCCCC2)s1 | 0
32 | CCNC(=O)CN1CC(C)OCC1C (stereo not given) | 0
33 | CN1CCN(C(=O)CO)CC1 | 0
34 | CC(C)c1nccn1CC(=O)O | 0
35 | CC1CCC(C(=O)N2CCC=C(F)C2)O1 (stereo not given) | 0
36 | Cc1cc2ncn(CC(N)=O)c2cc1C | 0
37 | CC1=NN(c2ccccc2)C(=O)C1 | 0
38 | CC(=O)Nc1ccc(N2CCN(C)CC2)cc1 | 0
39 | CCOc1ccccc1N1CCNCC1.Cl | 0
40 | CC(C)NC(=O)c1cc[nH]n1 | 0
